This is an account of results in publication PMC5493634, “Intermolecular steric inhibition of Ephexin4 is relieved by Elmo1” (Scientific Reports, 2017).

Amino acid sequences for entries named in this document (tags omitted). Residues count along the entry.
UniProt Q92556, residues 532-707: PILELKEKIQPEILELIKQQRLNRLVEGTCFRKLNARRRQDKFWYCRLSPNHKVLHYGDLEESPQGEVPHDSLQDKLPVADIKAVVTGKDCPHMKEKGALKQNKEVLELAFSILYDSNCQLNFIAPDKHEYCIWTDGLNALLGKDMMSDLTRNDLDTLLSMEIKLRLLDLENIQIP
UniProt P84095: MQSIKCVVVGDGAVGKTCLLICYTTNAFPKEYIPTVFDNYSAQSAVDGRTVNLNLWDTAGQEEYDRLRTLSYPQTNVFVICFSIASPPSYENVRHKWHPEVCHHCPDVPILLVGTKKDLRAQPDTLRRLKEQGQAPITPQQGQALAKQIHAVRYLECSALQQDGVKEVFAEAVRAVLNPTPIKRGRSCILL

The target of assay [1] is T1, SH3 domain of Ephexin4 (UniProt Q5VV41).
T1 sequence: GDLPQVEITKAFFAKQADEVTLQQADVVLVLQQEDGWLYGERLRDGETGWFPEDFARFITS
Put plainly: pull-down; 293T cells co-transfected; lysates precipitated with glutathione–Sepharose beads, 2 h at 4 °C; co-precipitated proteins detected with anti-GFP (Fig. 3a,d) or anti-FLAG (Fig. 3b,c, 4a).

In a further assay the target is T2, Ephexin4^280-628 (UniProt Q5VV41).
T2 sequence: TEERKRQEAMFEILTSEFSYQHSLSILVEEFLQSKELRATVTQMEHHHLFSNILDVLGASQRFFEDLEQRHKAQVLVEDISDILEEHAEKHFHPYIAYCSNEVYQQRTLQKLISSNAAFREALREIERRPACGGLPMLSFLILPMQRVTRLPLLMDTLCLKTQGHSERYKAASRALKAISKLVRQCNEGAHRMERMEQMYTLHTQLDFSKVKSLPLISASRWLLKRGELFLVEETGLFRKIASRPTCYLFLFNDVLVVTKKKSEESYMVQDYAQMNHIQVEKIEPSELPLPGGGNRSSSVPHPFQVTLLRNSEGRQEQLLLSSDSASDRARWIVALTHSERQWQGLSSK
Briefly: co-IP; RhoG binding assay: 293T cells co-transfected, lysis buffer with 10 µM EDTA; anti-FLAG precipitation, RhoG detected with anti-GFP; with or without co-expressed SH3 domain (Fig. 4b) or exogenous Elmo1 (Fig. 4d).

Assay [2] deals with T3, Ephexin4 (full-length, wild type) (UniProt Q5VV41).
T3 sequence: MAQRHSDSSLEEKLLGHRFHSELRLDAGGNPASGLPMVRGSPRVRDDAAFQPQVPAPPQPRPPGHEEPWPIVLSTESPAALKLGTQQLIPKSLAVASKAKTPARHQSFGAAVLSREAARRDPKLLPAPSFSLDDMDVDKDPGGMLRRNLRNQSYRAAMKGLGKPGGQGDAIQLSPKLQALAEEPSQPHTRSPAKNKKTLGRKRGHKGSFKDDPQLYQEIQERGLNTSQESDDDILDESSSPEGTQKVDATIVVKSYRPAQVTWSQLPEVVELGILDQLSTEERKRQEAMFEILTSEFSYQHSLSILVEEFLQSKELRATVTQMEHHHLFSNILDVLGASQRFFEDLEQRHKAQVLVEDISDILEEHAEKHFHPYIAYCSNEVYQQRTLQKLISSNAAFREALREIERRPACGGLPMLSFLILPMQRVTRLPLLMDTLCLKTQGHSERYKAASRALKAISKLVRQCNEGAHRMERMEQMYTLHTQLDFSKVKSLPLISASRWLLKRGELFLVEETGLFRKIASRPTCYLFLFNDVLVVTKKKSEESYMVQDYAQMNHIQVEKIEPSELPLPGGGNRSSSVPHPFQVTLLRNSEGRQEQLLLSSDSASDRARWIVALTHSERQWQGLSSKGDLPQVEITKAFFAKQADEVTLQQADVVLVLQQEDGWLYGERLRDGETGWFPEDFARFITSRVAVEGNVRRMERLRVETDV
The description is as above.

The target in assay [3] is T1, SH3 domain of Ephexin4. Put plainly: co-IP; 293T cells co-transfected; anti-FLAG immunoprecipitation of lysates (1% Triton X-100, 150 mM NaCl, pH 7.6), 2 h at 4 °C; anti-GFP immunoblot (Fig. 2a-c). (In general: Immunoblotting shows a protein as a band on a membrane.)
Assay [4] addresses T1, SH3 domain of Ephexin4. Briefly: pull-down; 293T cells co-transfected; lysates precipitated with glutathione–Sepharose beads, 2 h at 4 °C; co-precipitated proteins detected with anti-GFP (Fig. 3a,d) or anti-FLAG (Fig. 3b,c, 4a). The source holds these as a separate data set.
Assay [5] concerns the target T3, Ephexin4 (full-length, wild type). Briefly: co-IP; 293T cells co-transfected; anti-FLAG immunoprecipitation of lysates (1% Triton X-100, 150 mM NaCl, pH 7.6), 2 h at 4 °C; anti-GFP immunoblot (Fig. 2a-c).

Results are given in words; binding and its absence hold for the method and conditions named. In cells and extracts the contact can be indirect. Some binding calls cover weakened binding; strength is not graded here.

Consider “Elmo1^532-707 (from UniProt Q92556 532-707) (domain or fragment)”, for which the binding result with SH3 domain of Ephexin4 [1] is listed as “no binding”.

Consider “RhoG (nucleotide-free) (from UniProt P84095 1-191)”, for which the binding result (with Ephexin4^280-628; in assay [2]) was “binds” each time.

B1: Ephexin4^280-626 (domain or fragment, UniProt Q5VV41 280-626)
chain: TEERKRQEAMFEILTSEFSYQHSLSILVEEFLQSKELRATVTQMEHHHLFSNILDVLGASQRFFEDLEQRHKAQVLVEDISDILEEHAEKHFHPYIAYCSNEVYQQRTLQKLISSNAAFREALREIERRPACGGLPMLSFLILPMQRVTRLPLLMDTLCLKTQGHSERYKAASRALKAISKLVRQCNEGAHRMERMEQMYTLHTQLDFSKVKSLPLISASRWLLKRGELFLVEETGLFRKIASRPTCYLFLFNDVLVVTKKKSEESYMVQDYAQMNHIQVEKIEPSELPLPGGGNRSSSVPHPFQVTLLRNSEGRQEQLLLSSDSASDRARWIVALTHSERQWQGLS
For B1, the binding entry with SH3 domain of Ephexin4 [3] was “binds”.

B2: N20 region of Ephexin4 (amino acids 224–378) (domain or fragment, UniProt Q5VV41 224-378)
chain: LNTSQESDDDILDESSSPEGTQKVDATIVVKSYRPAQVTWSQLPEVVELGILDQLSTEERKRQEAMFEILTSEFSYQHSLSILVEEFLQSKELRATVTQMEHHHLFSNILDVLGASQRFFEDLEQRHKAQVLVEDISDILEEHAEKHFHPYIAYC
On to B2, for which, in the assay with SH3 domain of Ephexin4 [4], the binding result is “binds”.

B3: Ephexin4 (full-length, wild type) (natural protein, UniProt Q5VV41 1-709, looked up)
chain: T3 sequence
notes: Ephexin4, guanine nucleotide-exchange factor for RhoG; full-length; also called Epx4; Ephexin4-FLAG
On to B3, for which the binding result in assay [5] is “binds”.

B4: SH3 domain of Ephexin4 (domain or fragment, UniProt Q5VV41 629-689)
chain: T1 sequence
In the case of B4, in the assay with Ephexin4^280-628, the binding result is “binds”.
